# From PubChem BioAssay AID743255 (National Center for Advancing Translational Sciences (NCATS), 2014)
# By UniProt entry, the sequences of proteins in these tests, tags left out. Where a name states a change or a piece, a line headed by the entry shows the natural chain unless it says otherwise.
# UniProt O94782: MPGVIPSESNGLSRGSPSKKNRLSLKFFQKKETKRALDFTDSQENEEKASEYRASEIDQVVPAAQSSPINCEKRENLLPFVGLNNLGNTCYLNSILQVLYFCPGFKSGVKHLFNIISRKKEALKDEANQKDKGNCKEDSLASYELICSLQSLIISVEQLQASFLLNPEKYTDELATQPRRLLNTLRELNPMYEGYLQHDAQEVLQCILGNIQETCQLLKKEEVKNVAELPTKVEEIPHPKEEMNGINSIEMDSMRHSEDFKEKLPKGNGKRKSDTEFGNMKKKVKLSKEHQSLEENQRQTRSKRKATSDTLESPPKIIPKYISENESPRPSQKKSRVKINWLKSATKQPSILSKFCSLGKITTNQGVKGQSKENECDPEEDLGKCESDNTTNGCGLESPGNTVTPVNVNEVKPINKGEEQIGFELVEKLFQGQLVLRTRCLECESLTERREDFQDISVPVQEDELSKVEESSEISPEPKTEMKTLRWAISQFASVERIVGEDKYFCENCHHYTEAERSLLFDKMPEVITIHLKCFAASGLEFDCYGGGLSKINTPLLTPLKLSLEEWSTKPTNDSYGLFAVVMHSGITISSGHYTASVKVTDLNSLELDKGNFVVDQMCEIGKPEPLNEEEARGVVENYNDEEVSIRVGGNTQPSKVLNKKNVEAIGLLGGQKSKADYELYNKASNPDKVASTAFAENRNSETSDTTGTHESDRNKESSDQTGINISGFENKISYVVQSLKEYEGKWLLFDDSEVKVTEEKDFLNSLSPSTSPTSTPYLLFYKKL
# The whole screen tested about 390,000 compounds, of which about 910 (0.23%) were called active. Inconclusive results, whose numbers are uncertain, are shown with a selection of clear calls. Calls follow the shape of the dose curve; as a rule, active = well fitted inhibition curve with a large enough effect; inconclusive = small, poorly fitted or top-dose-only effect; inactive = no such curve, though single readings can be large or run the other way. Potencies of inconclusive entries are doubtful fits and often do not repeat.
# Target: Ubiquitin carboxyl-terminal hydrolase 1 (Homo sapiens) (UniProt O94782)
# Assay: Inhibitors of USP1/UAF1: Primary Screen; also: nearly all actives have a fitted effect of over 60% in size
# Settings: recombinant USP1/UAF1, Ub-Rhodamine cleavage fluorescence; activity change, negative = inhibition: at 57.1 µM (top of the series)
# Method in brief: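 In this screen, compounds sit with the deubiquitinase complex (1nM) for 15 min at room temperature before Ub-Rho is added at 150nM final. Fluorescence rise is then followed for 6 reads every 60 seconds.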
# % is scaled to controls: 0 for no effect and ±100 for the full control effect; potency is read from the fitted curve at half-maximal effect.
SMILES,"activity change, negative = inhibition",Potency
Cc1cc(/C([O-])=C(/C(=S)Nc2ccc(F)cc2)[n+]2ccccc2)c(C)n1-c1ccc(F)cc1,inactive: -9.75%,
CCCCNC(=O)c1onc(CSc2cccc(OC)c2)c1C(=O)O,,"inconclusive: 50.1 µM [inhibitor, partial curve, poor fit]"
CC(C)CC(=O)Nc1cc(-c2ccccc2F)nn1-c1ccccc1,,"inconclusive: 35.5 µM [inhibitor, partial curve]"
CN(CC(=O)N1CCc2ccccc21)S(=O)(=O)c1cccc2cccnc12,,"inconclusive: 0.794 µM [inhibitor, full curve]"
O=C(O)c1cccc2c1C(=O)c1ccccc1-2,inactive: -19%,
Cc1ccccc1C(=O)Nc1cccc(C(=O)OCc2cc(=O)n3ccsc3n2)c1,,"inconclusive: 7.94 µM [inhibitor, single point]"
O=C(NCCNC(=O)c1ccccc1F)c1ccco1,,"inconclusive: 11.2 µM [inhibitor, partial curve, poor fit]"
COc1ccc(CCNC(=O)c2ccc(Cn3c(=O)c4ccccc4n(Cc4cccc(C)c4)c3=O)cc2)cc1OC,inactive: -21.3%,
CCOCCCn1c(=N)c(C(=O)NC2CCCC2)cc2c(=O)n3cc(C)ccc3nc21,,"inconclusive: 50.1 µM [inhibitor, partial curve, poor fit]"
CC(C)COc1ccc(-c2nn(-c3ccccc3)cc2/C=C2/SC(=S)N(CC(=O)O)C2=O)cc1,,"inconclusive: 39.8 µM [inhibitor, single point]"
Cc1[nH][nH]c(=O)c1C(c1c(C)[nH][nH]c1=O)c1cn(C)c2ccccc12,,"inconclusive: 12.6 µM [inhibitor, partial curve]"
CN(C)c1ccc(/C=C2/SC(=O)N(CCN=C3NS(=O)(=O)c4ccccc43)C2=O)cc1,inactive: -8.56%,
Nc1ccc2nc(-c3ccc(-c4nc5ccc(N)cc5[nH]4)cc3)[nH]c2c1,inactive: -21.1%,
Cc1ccc(-c2nc(CSc3nncn4c3cc3occc34)c(C)o2)cc1,,"inconclusive: 28.2 µM [inhibitor, single point]"
O=C(O)c1ccccc1-c1nc2ccccc2c(=O)[nH]1,inactive: -5.21%,
O=C(Nc1cccc(C(F)(F)F)c1)c1cc2nc(-c3ccc4c(c3)OCO4)cc(C(F)(F)F)n2n1,,"inconclusive: 0.794 µM [inhibitor, full curve, poor fit]"
N#Cc1ccc(-c2ccco2)nc1SCC(=O)c1ccc(Cl)cc1,,"inconclusive: 31.6 µM [inhibitor, partial curve]"
Cc1csc(NC(=O)CSc2[nH]c(=O)ncc2C)n1,inactive: -18.3%,
CCOC(=O)C1=C(CN2CCN(c3ccc(OC)cc3)CC2)NC(=O)NC1c1ccc(Cl)cc1 (centres undefined),,"inconclusive: 39.8 µM [inhibitor, partial curve]"
Cc1cccc(C)c1NC(=S)N(Cc1cccs1)C1CCCC1,,"inconclusive: 112 µM [inhibitor, partial curve, poor fit]"
CCOc1cc(CN2CCC(N3CCC(C(=O)NC4CC4)CC3)CC2)ccc1O,,"inconclusive: 0.631 µM [inhibitor, full curve]"
CCOC(=O)N1CCC(NC(=O)c2cnn(-c3cccc(F)c3)c2-n2cccc2)CC1,,"inconclusive: 1.78 µM [inhibitor, full curve, poor fit]"

# For convenience, 2 of the compounds above.
SMILES,"activity change, negative = inhibition",Potency
Cc1ccccc1C(=O)Nc1cccc(C(=O)OCc2cc(=O)n3ccsc3n2)c1,,"inconclusive: 7.94 µM [inhibitor, single point]"
O=C(NCCNC(=O)c1ccccc1F)c1ccco1,,"inconclusive: 11.2 µM [inhibitor, partial curve, poor fit]"

# (next part)

SMILES,"activity change, negative = inhibition",Potency
CN(C=O)c1cc([N+](=O)[O-])ccc1OCc1ccccc1,inactive: -14%,
Cc1cc(NC(=O)CSc2nc(-c3ccccc3C)nc3c2c(=O)n(C)c(=O)n3C)no1,,"inconclusive: 0.282 µM [inhibitor, full curve, poor fit]"
CC(=O)c1cccc(NC(=O)C(CC(C)C)NS(=O)(=O)c2ccc3c(c2)CCN3C(C)=O)c1 (centres undefined),,"inconclusive: 39.8 µM [inhibitor, partial curve, poor fit]"
O=C(Nc1sccc1C(=O)NCc1ccco1)c1cccnc1,,"inconclusive: 39.8 µM [inhibitor, single point]"
O=C(NCCN1CCN(S(=O)(=O)c2ccc(F)cc2)CC1)C(=O)NCc1ccccc1,,"inconclusive: 50.1 µM [inhibitor, partial curve, poor fit]"
O=C(NCCc1ccccc1)c1ccc2c(c1)N(Cc1ccccc1)C(=O)c1ccccc1S2(=O)=O,,"inconclusive: 0.251 µM [inhibitor, full curve, poor fit]"
CC1CCCCN1C(C(=O)O)c1ccccc1 (centres undefined),,"inconclusive: 56.2 µM [inhibitor, partial curve]"
CC(Nc1cc(N2CCN(C(=O)C(C)(C)C)CC2)ccc1[N+](=O)[O-])c1ccccc1 (centres undefined),inactive: -19.7%,
O=C(/C=C/c1ccccc1)NCc1ccco1,inactive: -18.8%,
COC(=O)c1ccccc1C(=O)c1cccc2ccccc12,inactive: -11.1%,
CC(=O)c1cccc(Nc2cc(C)nc3nc(Cc4ccccc4)nn23)c1,inactive: -17.9%,
CCOc1cc(/C=C2\C(=O)N(CCC#N)N=C2C)ccc1OCC(N)=O,inactive: -24.9%,
O=C(O)c1cccc(COc2ccc3c(c2)CCC3)c1,inactive: -8.93%,
Cc1ccc(Nc2nc3ccccc3c3nnc(C)n23)c(C)c1,,"inconclusive: 7.94 µM [inhibitor, partial curve, poor fit]"
Cc1noc(C)c1CCC(=O)Nc1c(C(C)C)cccc1C(C)C,inactive: 5.98%,
Cc1cc(C)n2nc(SCC(=O)N/N=C/c3cccc(Br)c3)nc2n1,,"inconclusive: 15.8 µM [inhibitor, partial curve]"
CN(Cc1ccccc1)S(=O)(=O)c1ccc2[nH]c3c(c2c1)CCCCC3,,"inconclusive: 2.82 µM [inhibitor, partial curve]"
Cc1nc(N2CCN(Cc3ccc4c(c3)OCO4)CC2)[nH]c(=O)c1C,inactive: -9.14%,
Cc1ccccc1C(=O)OCc1cc(=O)n2nc(C(C)C)sc2n1,,"inconclusive: 3.98 µM [inhibitor, full curve, poor fit]"
CN(C)S(=O)(=O)N1CCN(S(=O)(=O)N(C)C)CC1,,"inconclusive: 50.1 µM [inhibitor, partial curve, poor fit]"
O=c1[nH]c(CN2CCN(c3ccccc3Cl)CC2)nc2ccsc12,inactive: -18.8%,
COc1ccc(S(=O)(=O)N2CCC(NC(=O)c3cccnc3)CC2)cc1,,"inconclusive: 50.1 µM [inhibitor, partial curve, poor fit]"
